Reference: patent publication US11046701B2, “Salt of cetagliptin, preparation method thereof, pharmaceutical composition, and use thereof” (CGENETECH (SUZHOU, CHINA) CO., LTD., priority 2018, dated 2021)
The name of at least one read-out is uncertain.

Experiment: PK/PD experiment of ICR mice: plasma concentration
Assay type: in vivo, CD-1 (ICR) mice
Details: same dose 3 mg/kg
Experimental: Experimental animals: CD-1 (ICR) mice aged for 4 weeks and weighed for about 18-22 g.
Grouping and administration scheme: the mice were fed adaptively, randomly grouped according to the weight on the day before experiment, and fasted overnight. […] After the experimental grouping, the group provided separately for detecting the initial basic value of DPPIV was carried out blood sampling, and other animals were intragastrically administrated with the drug at an administration volume of 10 mL/kg, the blood was sampled after the administration, and all other animals were stimulated with glucose administration; the blood was sampled at 20 min, 40 min, 60 min and 120 min after the glucose administration, respectively, and the plasma concentration and the DPPIV activity were detected by using plasma.
Research on pharmacodynamics-plasma concentration correlation: blood samples were collected at time points of 1 h, 1.33 h, 1.67 h, 2 h and 3 h after administration, and the plasma concentration was measured. The drug exposure value (AUCeff0-3h) of the DPPIV-P1 increased with the increase of dose, which was 16.09 ng·h/mL, 52.65 ng·h/mL, 162.3 ng·h/mL and 542.28 ng·h/mL, respectively.

## C[C@@H]1c2cnc(C(F)(F)F)n2CCN1C(=O)C[C@H](N)Cc1cc(F)c(F)cc1F [DPPIV-P1, (8R)-7-[(3R)-3-amino-1-oxo-4-(2,4,5-trifluorophenyl)butyl]-5,6,7,8-tetrahydro-8-methyl-3-(trifluoromethyl)imidazo[1,5-a]pyrazine]
  oral bioavailability compared with sitagliptin phosphate: higher oral bioacailability than the sitagliptin phosphate
